Values from PubChem BioAssay AID1671195 (Yale University, 2021)

Aim: 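Genes whose knockdown alters LDL uptake in liver cancer cells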 (primary screen)
Cell system: human Huh7 hepatoma cells
Reagents: siRNA pool against human genes, 18 nM
Timing: about 2 to 2.5 days of knockdown, then 8 h LDL uptake
Treatment: DiI-labelled LDL at 30 µg/ml for 8 h, in lipoprotein-deficient serum medium
Detection: 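Per-cell DiI-LDL intensity by automated imaging; well means scaled to the plate median and given as a robust z-score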
Reading the numbers: robust z-score: higher = more LDL uptake after knockdown
Call rule: 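Active when two or more replicates show a robust z-score above 2 or below -2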
In all, the deposit lists about 22,000 reagents; below is a part drawn at random. About 1,510 of all reagents (6.9%) were called active. 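Active includes knockdowns raising or lowering LDL uptake; positive z-scores mean more uptake, negative mean less.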 Unmarked entries are inactive. Reagents against one gene are numbered here.

gene symbol | pool no. | robust z-score, replicate 1 | robust z-score, replicate 2 | robust z-score, replicate 3
SQSTM1 | 1 | -1.71 | -0.915 | -1.5
CLEC5A | 1 | 0.685 | 1.27 | 0.736
UBE2R2 | 1 | 0.612 | 1.07 | -0.637
LINC00710 | 1 | 0.421 | 0.48 | 0.551
CSF2RA | 1 | 3.85 (active) | 2.36 | 2.98
ZCCHC17 | 1 | -1.02 | 1.06 | -0.396
CLASRP | 1 | -0.973 | -1.36 | -0.443
LINC00485 | 1 | -0.818 | -0.815 | -0.895
ZNF580 | 1 | 1.45 | 1.04 | 1.96
ERVMER61-1 | 1 | -0.726 | -0.685 | -0.491
TPM3 | 1 | 3.2 (active) | 1.84 | 5.04
AKAP13 | 1 | 0.764 | 0.421 | 0.992
TNFRSF9 | 1 | -1.34 | -1.84 | -1.65
GDF5 | 1 | -0.608 | 2.41 | 0.848
NFIX | 1 | 1.42 | 0.53 | 1.08
TRAF5 | 1 | -0.321 | -0.955 | -0.328
CDC25C | 1 | 0.0458 | 0.276 | 0.151
RNF6 | 1 | -0.232 | -0.43 | 0.0961
MORN1 | 1 | -0.768 | -0.734 | -0.958
TAB2 | 1 | -1.23 | -1.08 | -0.448
LOC440995 (retired record) | 1 | -0.185 | 0.592 | 0.347
UMOD | 1 | -1.03 | -1.42 | -2.15
PSMD6 | 1 | 2.9 (active) | 2.28 | 0.634
LINC01555 | 1 | 0.386 | 0.0702 | 0.0103
SMIM8 | 1 | -0.57 | -0.687 | 1.23
PCDH12 | 1 | -0.532 | -0.187 | 0.0579
NCOA1 | 1 | -1.09 | -1.11 | 0.221
PIP5K1B | 1 | 0.877 | 0.0934 | -0.0916
UBE2S | 1 | -1.05 | -1.17 | -2.08
PRKACA | 1 | -1.27 | -1.27 | -1.02

The list goes on (10 carried over from the part before).
gene symbol | pool no. | robust z-score, replicate 1 | robust z-score, replicate 2 | robust z-score, replicate 3
LOC440995 (retired record) | 1 | -0.185 | 0.592 | 0.347
UMOD | 1 | -1.03 | -1.42 | -2.15
PSMD6 | 1 | 2.9 (active) | 2.28 | 0.634
LINC01555 | 1 | 0.386 | 0.0702 | 0.0103
SMIM8 | 1 | -0.57 | -0.687 | 1.23
PCDH12 | 1 | -0.532 | -0.187 | 0.0579
NCOA1 | 1 | -1.09 | -1.11 | 0.221
PIP5K1B | 1 | 0.877 | 0.0934 | -0.0916
UBE2S | 1 | -1.05 | -1.17 | -2.08
PRKACA | 1 | -1.27 | -1.27 | -1.02
FRG1 | 1 | 0.016 | -0.928 | -0.264
UTS2 | 1 | 1.7 | 1.54 | -0.386
OR56A4 | 1 | -2.77 | -1.72 | -1.36
DSG3 | 1 | -0.978 | -0.837 | -0.856
NRXN2 | 1 | -0.456 | -0.486 | -0.935
ABHD12B | 1 | 0.306 | -0.542 | 0.0442
SNRPE | 1 | -0.596 | -0.332 | -1.49
AARS2 | 1 | 0.376 | -0.429 | -0.0423
SIAH1 | 1 | -0.482 | -0.396 | -1.33
SZT2 | 1 | 2.01 | 0.358 | 1.66
SZT2 | 2 | -1.02 | -0.364 | -0.959
PGK2 | 1 | -0.025 | 1.31 | 0.813
SKAP2 | 1 | 0.43 | 2.25 | 1.67
TEX11 | 1 | -0.955 | -1.29 | -1.45
OR8U8 | 1 | -1.5 | -1.23 | -1.22
NFXL1 | 1 | -0.988 | -1.06 | -1.01
CYTH3 | 1 | -0.391 | -0.425 | -0.869
TP53INP2 | 1 | -0.697 | -0.945 | -0.377
MAMDC2 | 1 | 2.08 (active) | 2.57 | 2.16
DTL | 1 | -0.243 | 0.106 | 0.114
ESRRG | 1 | 0.387 | 1.04 | 0.545
MYT1 | 1 | 0.96 | 0.239 | 0.0318
SALL2 | 1 | 0.049 | 0.225 | 1.51
ZNF669 | 1 | 1.93 | 1.37 | 1.22
FCGR2A | 1 | 0.00642 | 0.243 | -0.0633
KIF24 | 1 | -1.01 | -0.661 | -1.14
KIF24 | 2 | -1.41 | -1.37 | -1.12
OR1L6 | 1 | -1.06 | -0.431 | -0.118
IFT57 | 1 | 2.24 | 1.74 | 1.75
DCAF7 | 1 | -0.285 | -1.42 | 0.838
NCMAP | 1 | 1.34 | 0.392 | 0.893
WLS | 1 | 0.723 | 0.0653 | 0.0413
LOC400849 (retired record) | 1 | -1.51 | -1.5 | -1.29
LOC388141 (retired record) | 1 | 2.07 | 1.46 | 1.35
RP9 | 1 | -0.788 | -1 | -0.837
UBTD2 | 1 | 1 | 0.383 | 0.348
PIGW | 1 | 0.776 | 0.858 | 0.732
EXOG | 1 | -1.19 | -0.937 | -1.23
CARMIL2 | 1 | 4.44 (active) | 4.45 | 4.41
NHEJ1 | 1 | 0.648 | 0.356 | 0.0975
TPI1 | 1 | 0.178 | 1.09 | 0.976
ZDHHC12 | 1 | 0.765 | -0.119 | 0.925
MMP7 | 1 | 1.31 | -0.58 | 0.106
MOGS | 1 | -0.0609 | 0.638 | 0.384
KIF4B | 1 | 0.822 | 0.27 | 0.327
CAPN6 | 1 | -0.886 | -0.978 | -1.2
BACH2 | 1 | 1.09 | 0.91 | 2.22
CYTH4 | 1 | -1.12 | 1.82 | 0.102
MARS2 | 1 | -0.507 | 0.0486 | -0.732
DLGAP4 | 1 | -0.252 | -0.733 | -0.486
FOXN3-AS1 | 1 | -0.309 | -0.573 | -0.33
PDK4 | 1 | -1.35 | -0.942 | -0.625
SLC35D1 | 1 | 0.351 | -0.312 | 0.454
SKIDA1 | 1 | -0.348 | -0.177 | -0.238
ZNF17 | 1 | 0.728 | 1.1 | 0.867
BSCL2 | 1 | -0.447 | 0.188 | -1.59
COL5A2 | 1 | 0.118 | -0.885 | -0.716
